Measured values: patent US20180002415A1
Results are given in words; binding and its absence hold for the method and conditions named. Some binding calls cover weakened binding; strength is not graded here.

Amino acid sequences for entries named in this document (tags omitted). A change or cut given only in a name is not applied to a line headed by its entry.
UniProt P01031: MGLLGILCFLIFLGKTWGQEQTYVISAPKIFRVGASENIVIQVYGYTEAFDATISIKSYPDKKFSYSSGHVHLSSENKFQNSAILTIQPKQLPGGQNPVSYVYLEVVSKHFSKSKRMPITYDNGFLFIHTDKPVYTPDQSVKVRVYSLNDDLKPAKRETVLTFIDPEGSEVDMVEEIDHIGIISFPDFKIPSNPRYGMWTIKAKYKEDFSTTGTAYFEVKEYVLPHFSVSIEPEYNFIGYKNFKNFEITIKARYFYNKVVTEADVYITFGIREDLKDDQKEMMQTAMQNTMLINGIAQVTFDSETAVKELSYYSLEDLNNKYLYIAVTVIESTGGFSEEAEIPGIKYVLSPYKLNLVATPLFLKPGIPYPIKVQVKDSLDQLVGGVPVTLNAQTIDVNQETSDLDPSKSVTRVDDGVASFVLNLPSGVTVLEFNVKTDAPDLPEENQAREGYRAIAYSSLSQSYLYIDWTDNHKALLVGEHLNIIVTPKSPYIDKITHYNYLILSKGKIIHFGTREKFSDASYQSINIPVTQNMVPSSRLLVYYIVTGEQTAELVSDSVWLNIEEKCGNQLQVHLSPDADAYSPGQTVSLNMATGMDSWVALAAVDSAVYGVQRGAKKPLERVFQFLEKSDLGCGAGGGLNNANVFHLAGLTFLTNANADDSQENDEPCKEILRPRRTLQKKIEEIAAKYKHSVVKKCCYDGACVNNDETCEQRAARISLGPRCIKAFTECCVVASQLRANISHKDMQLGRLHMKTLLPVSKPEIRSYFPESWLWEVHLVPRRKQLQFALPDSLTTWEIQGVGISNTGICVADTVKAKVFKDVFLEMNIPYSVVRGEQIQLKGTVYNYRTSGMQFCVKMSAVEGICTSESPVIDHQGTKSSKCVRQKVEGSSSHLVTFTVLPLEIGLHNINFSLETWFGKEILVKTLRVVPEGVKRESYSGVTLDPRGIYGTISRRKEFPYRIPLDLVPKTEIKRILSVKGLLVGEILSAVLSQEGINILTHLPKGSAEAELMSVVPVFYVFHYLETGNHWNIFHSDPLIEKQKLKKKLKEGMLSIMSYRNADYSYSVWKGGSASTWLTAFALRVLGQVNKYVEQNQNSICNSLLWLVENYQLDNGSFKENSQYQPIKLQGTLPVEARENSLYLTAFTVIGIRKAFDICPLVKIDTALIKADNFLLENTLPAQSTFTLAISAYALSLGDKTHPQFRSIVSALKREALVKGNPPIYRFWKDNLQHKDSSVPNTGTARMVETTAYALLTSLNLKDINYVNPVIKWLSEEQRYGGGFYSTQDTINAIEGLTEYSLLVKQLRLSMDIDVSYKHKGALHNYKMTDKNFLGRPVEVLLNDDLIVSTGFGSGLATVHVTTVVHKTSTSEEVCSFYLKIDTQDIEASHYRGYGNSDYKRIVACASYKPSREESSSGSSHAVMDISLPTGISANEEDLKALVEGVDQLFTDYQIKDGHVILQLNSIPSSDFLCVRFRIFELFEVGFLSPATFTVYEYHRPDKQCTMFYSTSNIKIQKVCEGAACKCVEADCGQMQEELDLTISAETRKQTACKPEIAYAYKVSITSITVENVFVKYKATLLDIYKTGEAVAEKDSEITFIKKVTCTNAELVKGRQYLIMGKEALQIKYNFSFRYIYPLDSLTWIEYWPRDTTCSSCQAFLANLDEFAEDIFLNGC

Biological target: recombinant human C5 (human) (UniProt P01031)
Test: SPR (BIACORE T200, 37 C): antibody captured by ProA/G, recombinant human C5 injected, running buffer ACES pH7.4 or pH5.8; C5 concentration of the curves not printed on the sheet

binding: binds
B1: CFA0341 (antibody, V domains shown)
VH: QSVEESGGRLVTPGTPLTLTCTVSGIDLSSYTMGWVRQAPGKGLECIGYIHSFGSTYYASWAKGRFTISKTSTTVDLEITSPTTEDTATYFCARDVGGSSGWDLWGQGTLVTVSS
VL: DVVMTQTPSSVSAAVGGTVTIKCQASENIYSNLAWYQQKPGQPPKRLIYDASDLASGVPSRFSGSGYGTQFTLTISGVQCEDAATYYCQANYDSTSSSFGNVFGGGTEVVVK
